Patent US20220177512 (published 2022)

Experiment: general procedure: peptide synthesis; Siber resin; NH2-Dpm(4,4′-OPhy) pseudo solid phase protecting group
Settings: purification step

| Substance | step yield (vs cyclic peptide H before filtration of insoluble material) [%] | step yield (vs cyclic peptide I′) [%] |
| --- | --- | --- |
| Cl—CH2CO-Tyr(tBu)-Ile-Gln(Trt)-Asn(Trt)-Cys(Mmt)-Pro-Leu-Gly-NH-Siber resin | 70 | – |
| H-Tyr(tBu)-Ile-Gln(Trt)-Asn(Trt)-Cys(Mmt)-Pro-Leu-Gly-NH-Siber resin | – | 87 |
